This is one part of the list. The data scatter; read single values as rough.
What follows are targets tested with ClCC(=O)N[C@@H]1CCCc2ccccc12 (assay: log2 mean competition ratio of IA-DTB cysteine labelling (DMSO/compound) (log2 ratio); higher = stronger cysteine engagement by compound). Conditions: 50 µM; treatment time: 4 h; cell line lysate: HEK293T.
Protocol: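 IA-DTB competitive cysteine chemoproteomics in HEK293T RIPA lysate. Lysates were treated with compound 29 or 30 at 50 or 200 µM for 4 h, then IA-DTB (500 µM, 1 h), trypsin-digested, NeutrAvidin-enriched and analysed by diaPASEF. Competition ratio = intensity DMSO / intensity compound (n=4 treated, n=64 DMSO); binding: mean log2 CR ≥ 1 and p ≤ 0.05 plus QC filters. Target is the cysteine site.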

By UniProt entry, the sequences of proteins in these tests, tags left out. Where a name states a change or a piece, a line headed by the entry shows the natural chain unless it says otherwise.
UniProt P31323, whole entry, looked up: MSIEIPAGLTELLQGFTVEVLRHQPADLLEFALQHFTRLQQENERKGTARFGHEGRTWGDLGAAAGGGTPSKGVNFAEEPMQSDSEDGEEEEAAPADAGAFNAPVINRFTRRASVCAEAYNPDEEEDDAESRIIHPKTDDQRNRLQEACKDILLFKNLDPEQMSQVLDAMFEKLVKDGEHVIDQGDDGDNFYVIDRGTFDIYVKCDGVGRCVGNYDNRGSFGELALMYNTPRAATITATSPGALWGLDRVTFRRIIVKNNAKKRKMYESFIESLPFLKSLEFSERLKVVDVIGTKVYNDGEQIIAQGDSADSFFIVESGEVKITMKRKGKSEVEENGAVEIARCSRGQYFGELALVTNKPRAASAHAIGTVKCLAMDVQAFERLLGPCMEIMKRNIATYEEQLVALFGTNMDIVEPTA
UniProt Q13136: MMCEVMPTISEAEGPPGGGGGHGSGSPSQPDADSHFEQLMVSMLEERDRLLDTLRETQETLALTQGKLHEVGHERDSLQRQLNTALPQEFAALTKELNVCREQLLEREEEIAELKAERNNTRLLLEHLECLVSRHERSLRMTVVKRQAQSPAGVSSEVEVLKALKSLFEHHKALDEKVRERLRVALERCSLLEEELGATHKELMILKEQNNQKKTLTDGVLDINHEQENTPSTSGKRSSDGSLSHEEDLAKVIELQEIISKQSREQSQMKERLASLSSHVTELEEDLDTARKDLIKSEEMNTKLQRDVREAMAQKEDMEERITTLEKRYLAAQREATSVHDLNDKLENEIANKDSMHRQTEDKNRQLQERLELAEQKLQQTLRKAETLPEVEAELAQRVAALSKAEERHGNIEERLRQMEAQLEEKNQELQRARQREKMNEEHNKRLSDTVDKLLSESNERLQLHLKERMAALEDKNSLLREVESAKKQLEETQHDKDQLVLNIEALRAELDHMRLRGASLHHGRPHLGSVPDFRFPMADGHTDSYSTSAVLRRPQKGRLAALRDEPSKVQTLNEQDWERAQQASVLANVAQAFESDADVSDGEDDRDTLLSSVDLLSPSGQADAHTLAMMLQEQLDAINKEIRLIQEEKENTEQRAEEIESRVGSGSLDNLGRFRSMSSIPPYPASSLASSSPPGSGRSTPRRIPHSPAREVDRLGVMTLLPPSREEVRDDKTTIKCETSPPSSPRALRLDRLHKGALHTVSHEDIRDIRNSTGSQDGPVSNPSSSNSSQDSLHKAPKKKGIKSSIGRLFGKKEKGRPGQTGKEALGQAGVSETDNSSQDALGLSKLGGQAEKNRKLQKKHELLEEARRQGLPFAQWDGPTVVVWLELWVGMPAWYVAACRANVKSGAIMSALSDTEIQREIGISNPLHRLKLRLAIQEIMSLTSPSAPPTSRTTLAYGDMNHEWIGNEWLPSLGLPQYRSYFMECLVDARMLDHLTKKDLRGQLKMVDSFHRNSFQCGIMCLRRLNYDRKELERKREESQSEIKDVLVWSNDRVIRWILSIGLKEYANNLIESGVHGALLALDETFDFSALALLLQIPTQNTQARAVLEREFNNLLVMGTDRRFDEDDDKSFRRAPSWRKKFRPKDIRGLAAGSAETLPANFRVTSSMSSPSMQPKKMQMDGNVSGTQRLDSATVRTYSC
UniProt Q99873: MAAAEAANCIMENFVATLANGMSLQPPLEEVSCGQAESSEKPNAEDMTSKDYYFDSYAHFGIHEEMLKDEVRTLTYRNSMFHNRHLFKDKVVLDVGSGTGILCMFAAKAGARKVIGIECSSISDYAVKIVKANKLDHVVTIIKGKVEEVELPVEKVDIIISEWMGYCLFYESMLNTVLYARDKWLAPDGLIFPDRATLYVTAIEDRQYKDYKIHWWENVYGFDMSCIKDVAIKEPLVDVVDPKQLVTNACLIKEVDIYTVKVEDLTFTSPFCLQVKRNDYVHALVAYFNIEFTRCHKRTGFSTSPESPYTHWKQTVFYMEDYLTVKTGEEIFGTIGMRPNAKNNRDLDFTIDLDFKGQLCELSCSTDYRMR
UniProt Q13029: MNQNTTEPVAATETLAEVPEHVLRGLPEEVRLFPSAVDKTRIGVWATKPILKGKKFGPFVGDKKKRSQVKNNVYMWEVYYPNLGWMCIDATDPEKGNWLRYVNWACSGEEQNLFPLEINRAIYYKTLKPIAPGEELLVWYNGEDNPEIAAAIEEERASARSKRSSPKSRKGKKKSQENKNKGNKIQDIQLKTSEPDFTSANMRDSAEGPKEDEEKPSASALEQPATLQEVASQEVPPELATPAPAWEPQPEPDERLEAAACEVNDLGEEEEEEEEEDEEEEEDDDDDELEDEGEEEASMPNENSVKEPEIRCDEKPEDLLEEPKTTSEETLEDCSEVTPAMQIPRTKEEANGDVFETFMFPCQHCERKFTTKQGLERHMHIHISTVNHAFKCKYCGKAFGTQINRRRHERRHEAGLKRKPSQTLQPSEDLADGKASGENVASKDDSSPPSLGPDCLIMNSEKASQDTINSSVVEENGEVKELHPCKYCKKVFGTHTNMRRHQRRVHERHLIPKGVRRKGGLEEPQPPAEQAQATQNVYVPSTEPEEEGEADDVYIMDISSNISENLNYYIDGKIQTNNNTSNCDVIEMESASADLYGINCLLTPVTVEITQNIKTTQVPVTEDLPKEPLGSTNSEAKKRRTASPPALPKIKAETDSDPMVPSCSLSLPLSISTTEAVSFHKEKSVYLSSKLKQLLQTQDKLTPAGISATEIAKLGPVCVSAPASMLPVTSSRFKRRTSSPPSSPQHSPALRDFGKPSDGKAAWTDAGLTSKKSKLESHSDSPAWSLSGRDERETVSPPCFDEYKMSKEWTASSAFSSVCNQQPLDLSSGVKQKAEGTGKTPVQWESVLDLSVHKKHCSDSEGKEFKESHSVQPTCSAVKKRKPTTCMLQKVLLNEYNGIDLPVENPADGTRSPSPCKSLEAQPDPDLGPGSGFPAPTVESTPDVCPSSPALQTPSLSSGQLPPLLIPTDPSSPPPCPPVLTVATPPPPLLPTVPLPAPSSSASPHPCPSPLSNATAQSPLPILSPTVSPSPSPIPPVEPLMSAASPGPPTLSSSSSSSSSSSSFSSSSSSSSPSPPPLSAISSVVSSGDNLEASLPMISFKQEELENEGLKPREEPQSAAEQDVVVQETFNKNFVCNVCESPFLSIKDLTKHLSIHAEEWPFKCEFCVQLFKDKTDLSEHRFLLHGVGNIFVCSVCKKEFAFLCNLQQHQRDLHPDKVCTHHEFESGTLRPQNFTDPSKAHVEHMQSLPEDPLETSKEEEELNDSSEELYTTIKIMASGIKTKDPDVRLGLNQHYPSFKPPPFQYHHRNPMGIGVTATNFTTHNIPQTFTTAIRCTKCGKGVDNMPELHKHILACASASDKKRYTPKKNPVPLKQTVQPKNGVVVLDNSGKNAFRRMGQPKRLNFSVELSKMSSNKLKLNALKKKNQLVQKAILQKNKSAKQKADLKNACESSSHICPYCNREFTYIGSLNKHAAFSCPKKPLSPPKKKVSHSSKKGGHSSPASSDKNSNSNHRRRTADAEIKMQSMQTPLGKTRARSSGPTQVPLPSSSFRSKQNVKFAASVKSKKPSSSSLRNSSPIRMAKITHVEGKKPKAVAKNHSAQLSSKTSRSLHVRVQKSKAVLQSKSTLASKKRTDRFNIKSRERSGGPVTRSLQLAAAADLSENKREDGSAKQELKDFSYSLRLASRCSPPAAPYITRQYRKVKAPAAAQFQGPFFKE
UniProt Q9BUI4: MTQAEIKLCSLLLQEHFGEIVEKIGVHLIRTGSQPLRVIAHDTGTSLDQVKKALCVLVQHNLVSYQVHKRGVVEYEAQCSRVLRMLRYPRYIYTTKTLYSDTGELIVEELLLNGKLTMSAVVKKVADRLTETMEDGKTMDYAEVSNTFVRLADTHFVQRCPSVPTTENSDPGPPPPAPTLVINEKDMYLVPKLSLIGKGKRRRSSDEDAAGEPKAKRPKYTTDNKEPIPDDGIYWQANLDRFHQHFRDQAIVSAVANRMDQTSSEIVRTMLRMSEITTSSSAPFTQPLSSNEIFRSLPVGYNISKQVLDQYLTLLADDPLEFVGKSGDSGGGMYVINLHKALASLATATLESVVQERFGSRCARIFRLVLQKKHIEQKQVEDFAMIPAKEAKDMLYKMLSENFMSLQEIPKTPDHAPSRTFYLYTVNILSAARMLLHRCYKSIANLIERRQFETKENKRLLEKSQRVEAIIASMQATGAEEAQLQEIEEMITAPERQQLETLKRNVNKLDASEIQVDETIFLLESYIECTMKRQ
UniProt Q8NEY8: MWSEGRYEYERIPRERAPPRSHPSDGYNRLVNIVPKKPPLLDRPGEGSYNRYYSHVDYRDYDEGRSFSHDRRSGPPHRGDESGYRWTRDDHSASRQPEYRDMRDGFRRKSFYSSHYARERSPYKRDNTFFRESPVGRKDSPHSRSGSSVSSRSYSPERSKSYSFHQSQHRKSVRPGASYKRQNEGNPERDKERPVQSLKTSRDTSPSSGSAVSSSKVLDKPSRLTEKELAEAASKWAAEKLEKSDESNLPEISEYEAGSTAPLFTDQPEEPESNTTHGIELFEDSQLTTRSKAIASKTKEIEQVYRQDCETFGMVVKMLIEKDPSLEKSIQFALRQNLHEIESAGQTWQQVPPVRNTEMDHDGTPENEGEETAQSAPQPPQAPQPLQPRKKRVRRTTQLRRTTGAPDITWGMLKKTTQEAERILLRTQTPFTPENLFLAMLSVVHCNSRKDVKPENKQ
UniProt Q86W92: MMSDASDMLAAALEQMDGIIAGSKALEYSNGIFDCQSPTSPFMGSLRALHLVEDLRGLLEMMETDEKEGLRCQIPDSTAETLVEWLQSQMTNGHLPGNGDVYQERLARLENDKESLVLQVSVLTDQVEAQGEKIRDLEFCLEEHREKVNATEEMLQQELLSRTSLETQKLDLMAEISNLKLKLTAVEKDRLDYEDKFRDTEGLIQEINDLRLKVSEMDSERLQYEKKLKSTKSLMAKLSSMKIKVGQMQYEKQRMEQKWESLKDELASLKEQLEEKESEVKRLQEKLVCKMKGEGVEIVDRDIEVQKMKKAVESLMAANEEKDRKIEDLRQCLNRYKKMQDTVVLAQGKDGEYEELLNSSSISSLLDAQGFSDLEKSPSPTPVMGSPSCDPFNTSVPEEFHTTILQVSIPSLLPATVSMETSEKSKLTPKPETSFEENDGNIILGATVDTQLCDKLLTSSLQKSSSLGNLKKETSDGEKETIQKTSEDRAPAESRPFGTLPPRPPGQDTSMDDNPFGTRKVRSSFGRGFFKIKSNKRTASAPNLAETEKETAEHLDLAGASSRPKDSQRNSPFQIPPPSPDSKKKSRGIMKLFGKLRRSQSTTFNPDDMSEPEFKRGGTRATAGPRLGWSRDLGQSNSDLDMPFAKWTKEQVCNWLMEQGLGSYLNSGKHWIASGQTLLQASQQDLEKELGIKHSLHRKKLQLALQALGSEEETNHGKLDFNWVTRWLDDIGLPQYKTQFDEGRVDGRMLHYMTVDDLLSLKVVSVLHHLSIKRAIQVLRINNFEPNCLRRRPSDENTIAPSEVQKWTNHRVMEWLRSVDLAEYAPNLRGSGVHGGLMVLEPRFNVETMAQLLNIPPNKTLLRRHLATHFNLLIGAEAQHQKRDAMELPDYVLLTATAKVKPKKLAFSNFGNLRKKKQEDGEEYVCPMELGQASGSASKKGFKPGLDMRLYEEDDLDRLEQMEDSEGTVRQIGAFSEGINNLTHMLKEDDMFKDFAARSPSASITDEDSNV
UniProt Q13356: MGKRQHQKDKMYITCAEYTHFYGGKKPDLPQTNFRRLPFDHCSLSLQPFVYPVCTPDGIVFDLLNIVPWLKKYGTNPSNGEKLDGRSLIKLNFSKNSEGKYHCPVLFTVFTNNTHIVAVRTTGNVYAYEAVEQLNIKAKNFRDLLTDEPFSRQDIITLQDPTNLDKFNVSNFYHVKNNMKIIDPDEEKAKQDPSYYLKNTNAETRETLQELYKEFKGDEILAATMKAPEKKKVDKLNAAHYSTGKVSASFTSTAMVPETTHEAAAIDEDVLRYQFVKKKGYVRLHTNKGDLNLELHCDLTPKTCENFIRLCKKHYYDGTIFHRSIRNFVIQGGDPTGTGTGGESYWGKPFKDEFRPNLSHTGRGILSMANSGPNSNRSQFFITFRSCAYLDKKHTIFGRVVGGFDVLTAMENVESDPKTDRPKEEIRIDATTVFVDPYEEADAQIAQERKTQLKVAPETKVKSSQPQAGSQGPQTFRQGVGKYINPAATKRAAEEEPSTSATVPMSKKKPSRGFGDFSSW
UniProt O43741: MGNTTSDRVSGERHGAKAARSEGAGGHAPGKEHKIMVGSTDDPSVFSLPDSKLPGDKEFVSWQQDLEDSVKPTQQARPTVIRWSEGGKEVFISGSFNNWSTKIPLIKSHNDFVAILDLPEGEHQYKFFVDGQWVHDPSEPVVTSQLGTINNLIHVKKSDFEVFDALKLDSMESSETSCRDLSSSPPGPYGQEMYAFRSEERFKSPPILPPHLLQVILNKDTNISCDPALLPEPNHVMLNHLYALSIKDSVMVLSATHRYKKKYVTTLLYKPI

Target | log2 mean competition ratio
PRKDC C2435 (UniProt P78527) | -0.19
PRKD2 C217 | -0.257
PRKAR2B C211 (UniProt P31323) | -0.0196
PPFIA1 C738 (UniProt Q13136) | -0.175
PRMT1 C272 (UniProt Q99873) | 0.0648
PRDM2 C875 (UniProt Q13029) | -0.0265
POLR3C C79 (UniProt Q9BUI4) | 0.0103
PPRC1 C1084 (UniProt Q5VV67) | -0.161
PPHLN1 C309 (UniProt Q8NEY8) | -0.111
PPFIBP1 C788 (UniProt Q86W92) | 0.356
PREP C255 | 0.0972
PPIL2 C387 (UniProt Q13356) | -0.0739
PREB C128 (UniProt Q9HCU5) | 0.413
POLR2A C1430 | 0.324
PPP1R12B C718 (UniProt O60237) | -0.132
PPP5C C11 (UniProt P53041) | 0.0628
PRKAB2 C178 (UniProt O43741) | -0.00527
POLR3B C161 (UniProt Q9NW08) | 0.0668
PREP C57 | -0.179
PPM1K C97 | -0.0964

Same assay, conditions: 200 µM; treatment time: 4 h; cell line lysate: HEK293T

Target | log2 mean competition ratio
PRKDC C2435 (UniProt P78527) | -0.0917
PRKD2 C217 | 0.115
PRKAR2B C211 (UniProt P31323) | 0.173
PPFIA1 C738 (UniProt Q13136) | -0.00424
PRMT1 C272 (UniProt Q99873) | -0.432
PRDM2 C875 (UniProt Q13029) | 0.0162
POLR3C C79 (UniProt Q9BUI4) | -0.137
PPRC1 C1084 (UniProt Q5VV67) | -0.565
PPHLN1 C309 (UniProt Q8NEY8) | -0.00487
PPFIBP1 C788 (UniProt Q86W92) | 0.315
PREP C255 | -0.19
PPIL2 C387 (UniProt Q13356) | 0.0221
PREB C128 (UniProt Q9HCU5) | 0.101
POLR2A C1430 | 0.584
PPP1R12B C718 (UniProt O60237) | 0.354
PPP5C C11 (UniProt P53041) | 0.0328
PRKAB2 C178 (UniProt O43741) | 0.216
POLR3B C161 (UniProt Q9NW08) | 0.484
PREP C57 | -0.0884
PPM1K C97 | -0.0519

Source: the supplement of paper PMC11732987, “Enantioselective OTUD7B fragment discovery through chemoproteomics screening and high-throughput optimisation” (Communications Chemistry, 2025)
